From PMC7736090 come the findings set out here.

Sequences of proteins named here, by UniProt entry; tags and fusion partners are left off. A change or cut given only in a name is not applied to a line headed by its entry.
UniProt F0NHR9: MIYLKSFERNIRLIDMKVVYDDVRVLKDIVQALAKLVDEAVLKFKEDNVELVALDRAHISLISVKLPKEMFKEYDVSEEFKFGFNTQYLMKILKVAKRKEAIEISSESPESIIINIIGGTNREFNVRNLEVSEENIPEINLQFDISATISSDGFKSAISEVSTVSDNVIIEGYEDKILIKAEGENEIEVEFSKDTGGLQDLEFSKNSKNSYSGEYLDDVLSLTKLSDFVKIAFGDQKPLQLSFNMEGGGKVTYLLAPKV
UniProt F0NHS7: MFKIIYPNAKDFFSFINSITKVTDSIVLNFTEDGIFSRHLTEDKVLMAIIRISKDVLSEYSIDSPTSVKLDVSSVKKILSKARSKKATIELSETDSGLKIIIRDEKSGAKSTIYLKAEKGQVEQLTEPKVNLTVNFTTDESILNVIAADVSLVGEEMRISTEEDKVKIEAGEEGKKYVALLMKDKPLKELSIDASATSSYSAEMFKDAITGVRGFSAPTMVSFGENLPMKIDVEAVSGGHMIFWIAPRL
UniProt F0NGU9: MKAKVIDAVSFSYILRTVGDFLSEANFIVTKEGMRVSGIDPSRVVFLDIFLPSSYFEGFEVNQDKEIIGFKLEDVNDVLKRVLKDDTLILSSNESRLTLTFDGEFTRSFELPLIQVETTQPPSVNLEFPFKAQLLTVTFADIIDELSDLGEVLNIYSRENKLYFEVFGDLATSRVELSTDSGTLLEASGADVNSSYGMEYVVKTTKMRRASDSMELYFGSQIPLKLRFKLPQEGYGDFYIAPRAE

In assay [1] the target is PCNA subunit SiRe_1594 of Sulfolobus islandicus REY15A (Sulfolobus islandicus REY15A) (UniProt F0NHR9). Briefly: SEC; mixture of the three purified PCNA subunits passed through a gel filtration column (Superdex 200 10/300; 50 mM Tris-HCl pH 8.0, 100 mM NaCl, 5% glycerol); heterotrimer eluted around 13 ml, earlier than the individual subunits; both purified.
For assay [2], the target named is PCNA subunit SiRe_1602 of Sulfolobus islandicus REY15A (Sulfolobus islandicus REY15A) (UniProt F0NHS7). The description is as above.

No constants are given. Whether binding was seen depends on the method and setting. A result given as binding can be weak or reduced; the word gives no strength.

As for “PCNA subunit SiRe_1602 of Sulfolobus islandicus REY15A (from UniProt F0NHS7)”, the binding result in assay [1] was “binds”. In the case of “PCNA subunit SiRe_1048 of Sulfolobus islandicus REY15A (from UniProt F0NGU9)”, the binding result in assay [2] and in assay [1] was “binds” in each case.
